Results from article PMC6626044, “Molecular basis of egg coat cross-linking sheds light on ZP1-associated female infertility” (Nature Communications, 2019).
No constants are given. Whether binding was seen depends on the method and setting. For part of these data: In cells and extracts the contact can be indirect. For part of these data: Tags and fused reporters may be left off the sequences shown.

Tests used:
[1] = target: T1, human ZP4 ZP-N1 domain, 6His-tagged (human) (UniProt Q12836); test: pull-down; conditioned medium of cells co-expressing the 6His- and Myc-tagged forms, Ni-NTA beads, 20 mM Na-HEPES pH 7.8, 100 mM NaCl, 10 mM imidazole, 1 h at RT; PNGase F, immunoblot with anti-5His and anti-Myc
T1 sequence: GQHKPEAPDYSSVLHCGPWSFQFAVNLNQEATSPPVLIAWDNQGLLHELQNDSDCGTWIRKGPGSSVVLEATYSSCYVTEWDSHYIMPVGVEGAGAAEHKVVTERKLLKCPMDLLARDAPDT

[2] = target: human ZP1 trefoil domain and ZP module, hZP1_(A195-P590) (human) (UniProt P60852); test: SEC-MALS; Superdex 75 Increase 10/300 GL, 10 mM Na-HEPES pH 7.8, 150 mM NaCl, 0.4 mL/min; calibrated with BSA; both purified
[3] = target: T1, human ZP4 ZP-N1 domain, 6His-tagged (human); test: SEC; IMAC-purified protein, analytical SEC at 4 °C in 20 mM Na-HEPES pH 7.8, 150 mM NaCl (HiLoad 26/600 Superdex 75 pg or Superdex 75 Increase 10/300 GL), fractions on Coomassie-stained SDS-PAGE; both purified

B1: human ZP4 ZP-N1 domain, Myc-tagged (domain or fragment, UniProt Q12836 19-140)
chain: GQHKPEAPDYSSVLHCGPWSFQFAVNLNQEATSPPVLIAWDNQGLLHELQNDSDCGTWIRKGPGSSVVLEATYSSCYVTEWDSHYIMPVGVEGAGAAEHKVVTERKLLKCPMDLLARDAPDT
Q: With B1 as the binder, how does the binding [1] read?
A: Its binding is “no binding”.

B2: human ZP1 trefoil domain and ZP module, hZP1_(A195-P590) (domain or fragment, UniProt P60852 195-590)
chain: ALPSPGPGPTLATLAQPHWGTLEHWDVNKRDYIGTHLSQEQCQVASGHLPCIVRRTSKEACQQAGCCYDNTREVPCYYGNTATVQCFRDGYFVLVVSQEMALTHRITLANIHLAYAPTSCSPTQHTEAFVVFYFPLTHCGTTMQVAGDQLIYENWLVSGIHIQKGPQGSITRDSTFQLHVRCVFNASDFLPIQASIFPPPSPAPMTQPGPLRLELRIAKDETFSSYYGEDDYPIVRLLREPVHVEVRLLQRTDPNLVLLLHQCWGAPSANPFQQPQWPILSDGCPFKGDSYRTQMVALDGATPFQSHYQRFTVATFALLDSGSQRALRGLVYLFCSTSACHTSGLETCSTACSTGTTRQRRSSGHRNDTARPQDIVSSPGPVGFEDSYGQEPTLGP
Q: For B2, which binding [2] is on record?
A: The binding was “no binding”.

B3: human ZP4 ZP-N1 domain, 6His-tagged (domain or fragment, UniProt Q12836 19-140)
chain: GQHKPEAPDYSSVLHCGPWSFQFAVNLNQEATSPPVLIAWDNQGLLHELQNDSDCGTWIRKGPGSSVVLEATYSSCYVTEWDSHYIMPVGVEGAGAAEHKVVTERKLLKCPMDLLARDAPDT
Q: For B3, which binding [3] is on record?
A: The binding was “no binding”.
